# At least one compound was matched to its structure with a doubt left.
# How the values were obtained:
# [1] = system: U87MG or the corresponding GPD1 KO cells; test: Apoptosis assay after Temozolomide treatment, U87MG; format: cell-based; settings: 250 μM Temozolomide, 72 hours; GPD1 KO cells versus human U87MG cell line
# [2] = system: mBTSCs or the corresponding GPD1 KO cells; test: Apoptosis assay after Temozolomide treatment, mBTSCs; format: cell-based, mouse; settings: 250 μM Temozolomide, 72 hours; GPD1 KO cells versus BTSC
smiles,measurement,setting,value
Cn1nnc2c(C(N)=O)ncn2c1=O [Temozolomide],sensitivity to chemotherapy (% apoptotic cells),[1],more sensitive to chemotherapy
same,sensitivity to chemotherapy (% apoptotic cells),[2],more sensitive to chemotherapy

# Source: US20190276833A1, “CANCER TREATMENT BY GLYCEROL-3-PHOSPHATE DEHYDROGENASE 1 INHIBITION” (Deutsches Krebsforschungszentrum, priority 2016, published 2019)
